Earlier results in US5348941A, “Stabilizers for fibroblast growth factors” (Merck & Co., Inc., priority 1992, dated 1994).

Conditions: affinity chromatography; cited from earlier work

In the case of “aFGF: human acidic fibroblast growth factor, molecular mass of about 15.9 kDa”, the “salt concentration required for elution from heparin” value is listed as 1.0 M.

In the case of “bFGF: basic fibroblast growth factor, molecular mass of about 16.3 kDa”, the “salt concentration required for elution from heparin” value is listed as 1.6 M.
